## Results of single-concentration screens

Chains of the proteins cited; added tags and fusions are not shown. Residues count along the entry.
UniProt Q4DA54, 1-478: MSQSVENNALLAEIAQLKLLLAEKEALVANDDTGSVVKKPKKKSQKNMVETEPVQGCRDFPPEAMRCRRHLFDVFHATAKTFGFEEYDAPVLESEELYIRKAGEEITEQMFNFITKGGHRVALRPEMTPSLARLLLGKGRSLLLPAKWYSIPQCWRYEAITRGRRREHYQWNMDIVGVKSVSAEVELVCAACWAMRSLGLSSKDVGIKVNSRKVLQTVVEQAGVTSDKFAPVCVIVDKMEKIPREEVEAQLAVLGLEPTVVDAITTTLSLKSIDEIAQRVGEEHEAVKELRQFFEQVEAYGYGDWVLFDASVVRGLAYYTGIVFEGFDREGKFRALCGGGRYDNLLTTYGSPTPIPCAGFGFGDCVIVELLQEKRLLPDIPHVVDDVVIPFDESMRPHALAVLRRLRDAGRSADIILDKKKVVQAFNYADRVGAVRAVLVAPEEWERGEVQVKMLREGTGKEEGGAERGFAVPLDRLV

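Enzyme assay of histidyl-tRNA synthetase; the read-out is not stated. Target: Histidine-tRNA ligase, Trypanosoma cruzi CL Brener (UniProt Q4DA54). Concentration: 30 µM. Direction is inferred from retests: higher values go with stronger inhibition. Of about 69,000 compounds tested this way, about 31 (0.045%) reached 50% or more in at least one test.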

The filed quantity is “Percent Effect” (%).
The record does not define 0% and 100%; most values in the screen are far below 50% and negative numbers occur (in some assays of this library far below -100).
The compounds are a random part of those screened.

CC1COC2(CCN(C(=O)c3ncoc3C(C)C)CC2)O1 (stereo not given) read 5.911%.
O=C(C(CNCc1cccc(O)c1)c1ccccc1)N1CCOCC1 (stereo not given) read 2.242%.
CCCn1cc(-c2cc(-c3ccoc3)c(C#N)c(N)n2)c(C)n1 read 28%.
CC(C)C1CCC(N2CCN(CCS(C)(=O)=O)CC2)CC1 (stereo not given) read 9.392%.
CC(=O)NCCN1CCC(c2cccs2)CC1 read 0.8264%.
Cc1noc(CN(C)C(=O)c2n[nH]c(N)c2-c2ccccc2)n1 read 4.95%.
Cc1cc(C)n(-c2cncc(N3CCN(C(=O)C(C)C)CC3)n2)n1 read -1.724%.
CCc1ocnc1C(=O)Nc1ccc2ccn(CCN(C)C)c2c1 read 7.895%.
COc1coc(C(=O)Nc2nc(-c3cccnc3)cs2)cc1=O read 2.97%.
CCC(CNC(=O)OC)(OC)c1ccccc1 (stereo not given) read 2.062%.
Fc1cccnc1OC[C@@]12CCO[C@@H]1CCN(CC1CCOCC1)C2 read 1.695%.
CC(C)Nc1ncnc2c1CCN(C(=O)NCc1cccc(F)c1)CC2 read 10.58%.
O=C(NC1CC2(CCN(CCO)CC2)Oc2ccccc21)c1csnn1 (stereo not given) read 5.155%.
CC1CCN(c2ccc(=O)n(CC(=O)N(C)Cc3ccccc3)n2)CC1 read 0.5181%.
CCN1CCC(N2CCN(c3cc(-c4nc(C)no4)ccn3)CC2)CC1 read 3.361%.
COc1cc(C(=O)NS(=O)(=O)c2cccc(C#N)c2)ccc1C read -1.916%.
CC(C)CNC(=O)CNC(=O)NC(c1nccs1)C1CC1 (stereo not given) read -11.4%.
O=C(NCCn1ccnc1)N1CCN(Cc2ccsc2)CC1 read 1.714%.
CC(C)(C)C(O)CN1CCN(Cc2ccc(C#N)cc2)CC1 (stereo not given) read 14.29%.
CCCNC(=O)c1nn(CC)cc1NC(=O)C(C)n1ncc(Cl)c1C (stereo not given) read -0.4425%.
O=C(CS(=O)(=O)Cc1cccc(Br)c1)Nc1cn[nH]c1 read 8.235%.
CCNc1cc2c(nn1)CCN(C(=O)C1CCc3ccccc31)C2 (stereo not given) read 5.263%.
CC1c2ncc(CNC(=O)C3CC3)n2CCN1Cc1cccnc1 (stereo not given) read 8.571%.
COc1cncc(N2CCN(Cc3cccn3C)CC2)n1 read 8.621%.
Cn1ncc2c(NC3CCSC3)nc(-c3ccncc3)nc21 (stereo not given) read 11.61%.
CC(=O)N1CC2(CCN(C(=O)c3ccoc3)C2)C1 read 3.922%.
O=C(O)c1cc(-c2ccncc2)cc(S(=O)(=O)NCc2ccccn2)c1 read 6.897%.
COCc1nccc(C2CCCN(Cc3cccc(C#N)c3)C2)n1 (stereo not given) read 5.172%.
Cc1noc(C)c1CN1CCC(c2nnc(Cn3cccn3)n2C)CC1 read 2.232%.
COc1ccc(CSc2nnc(N)n2C2CC2)cc1Cl read 7.328%.
COc1cccc(CCC2CCCN(C(C)=O)C2)c1 (stereo not given) read 0.9804%.
CN(C)C(=O)C1CCC2(CCN(C(=O)Nc3cccc(F)c3)CC2)O1 (stereo not given) read 0.5025%.
CCOc1ccc(NC(=O)Cn2cc(I)cn2)cc1 read 7.317%.
O=C(Cc1ccccn1)N1CCN(C(=O)CC2CCCCC2)CC1 read 0.2915%.
CCN(C(=O)Cc1ccc(NCc2nccn2C)cc1)c1ccccc1 read 10.83%.
O=C1NCCN1C1CCN(Cc2coc(-c3ccccc3)n2)CC1 read 2.312%.
Cn1ncc2c1NC(=O)CC2c1ccc(F)cc1 (stereo not given) read 4.386%.
Cc1cc(S(=O)(=O)N2CCC(N3CCC(O)C3)CC2)c(Cl)cc1Cl (stereo not given) read 2.222%.
CC(C)(C)C(=O)N1CCCC1c1nccnc1Cl (stereo not given) read 4.135%.
CN(C)CC1CN(Cc2csc(C3CCCC3)n2)CCO1 (stereo not given) read 1.515%.
CCC(=O)NC(c1ccc(C)cc1)c1cccc(S(C)(=O)=O)c1 (stereo not given) read 5.941%.

Some entries from above, unchanged:

With COCc1nccc(C2CCCN(Cc3cccc(C#N)c3)C2)n1 (stereo not given) the screen gave 5.172%.
With COc1ccc(CSc2nnc(N)n2C2CC2)cc1Cl the screen gave 7.328%.
With CCNc1cc2c(nn1)CCN(C(=O)C1CCc3ccccc31)C2 (stereo not given) the screen gave 5.263%.
With CC1CCN(c2ccc(=O)n(CC(=O)N(C)Cc3ccccc3)n2)CC1 the screen gave 0.5181%.

Data taken from ChEMBL document CHEMBL3988442, “University of Dundee, Small-Polar-MMV Screening Library” (2021).